Test results reported in patent US20250099534A1, “UBIQUITIN HIGH AFFINITY CYCLIC PEPTIDES AND METHODS OF USE THEREOF” (TECHNION RESEARCH & DEVELOPMENT FOUNDATION LIMITED, priority 2022, published 2025).
Entries after “also recorded” stand apart in the source; their conditions may differ. For part of these data: Part of at least one peptide drawing is inferred or uncertain, most often the ends. For at least one compound, name, drawing or mass did not settle the structure. Starred links: 1 amine or outer side, 2 acyl side, 3 side chain; linkers in the order of their positions; H or OH if unused. Positions of bridges follow the written chain, without caps; N, C: chain ends. Residues, ends and D or L forms follow the SMILES beside them. *: point of attachment. Fluorescein(5-Mal) = O=C1OC2(c3ccc(O)cc3Oc3cc(O)ccc32)c2ccc(N3C(=O)CC(*)C3=O)cc21; X2 = CN(C)c1ccc2c(c1)Oc1cc(N(C)C)ccc1C21OC(=O)c2cc(N3C(=O)CC(*)C3=O)ccc21; X1 = O=C(c1cccc(C[*:2])c1)[*:1]

Key:
[1] = target: T1, Lys63 linked Di-Ub (Homo sapiens, UniProt P0CG47); test: KD determination of fluorophore-labeled peptides, fluorescence-based assay; format: binding; details: Y=Bmax*X/(KD+X), triplicates, read-out: dissociation constant (KD) of labeled peptide
T1 construct: made in house; host or cells: none (total chemical synthesis: Fmoc-SPPS, ligation, desulfurization)

[2] = target: T2, Lys11 linked Di-Ub (Homo sapiens, UniProt P0CG47); test: SPR binding to Lys11 linked Di-Ub
T2 construct: Other Ub chains such as Lys11-linked Di-Ub, Lys29-linked Di-Ub, Lys48-linked Di-Ub, Linear Di-Ub, and Lys48-linked Tetra-Ub were prepared as described previously; made in house

[3] = target: T3, Lys29 linked Di-Ub (Homo sapiens, UniProt P0CG47); test: SPR binding to Lys29 linked Di-Ub
T3 construct: Other Ub chains such as Lys11-linked Di-Ub, Lys29-linked Di-Ub, Lys48-linked Di-Ub, Linear Di-Ub, and Lys48-linked Tetra-Ub were prepared as described previously; made in house

[4] = target: T1, Lys63 linked Di-Ub; test: Fluorescence-based competitive assay against CP1-FITC (relative binding); details: competition with CP1-FITC; result in words
[5] = tested on: Lys63-linked Di-Ub; test: as above; details: compared to cyclic peptide 1
[6] = target: T4, linear Di-Ub (Homo sapiens, UniProt P0CG47); test: Fluorescence-based relative binding on linear Di-Ub; details: fluorescence-based assay
T4 construct: Other Ub chains such as Lys11-linked Di-Ub, Lys29-linked Di-Ub, Lys48-linked Di-Ub, Linear Di-Ub, and Lys48-linked Tetra-Ub were prepared as described previously; made in house; host or cells: none stated (prepared as in Kumar K S A et al., 2011)

[7] = target: T5, Lys48 linked Di-Ub (Homo sapiens, UniProt P0CG47); test: Fluorescence-based relative binding on Lys48 linked Di-Ub; details: fluorescence-based assay, compared to binder mJ08-L8W
T5 construct: Other Ub chains such as Lys11-linked Di-Ub, Lys29-linked Di-Ub, Lys48-linked Di-Ub, Linear Di-Ub, and Lys48-linked Tetra-Ub were prepared as described previously; made in house

[8] = target: T6, Lys48 linked Tetra-Ub (Homo sapiens, UniProt P0CG47); test: Fluorescence-based relative binding on Lys48 linked Tetra-Ub; details: fluorescence-based assay, compared to binder Ub4_ix
T6 construct: Other Ub chains such as Lys11-linked Di-Ub, Lys29-linked Di-Ub, Lys48-linked Di-Ub, Linear Di-Ub, and Lys48-linked Tetra-Ub were prepared as described previously; made in house

[9] = tested on: γ-H2AX in U2OS cells; test: Induction of histone H2AX phosphorylation (γ-H2AX western blot), U2OS; format: cell-based; details: 2 μM cyclic peptide, vs control
[10] = tested on: γ-H2AX in HeLa cells; test: Induction of histone H2AX phosphorylation (γ-H2AX western blot), HeLa; format: cell-based; details: 2 μM cyclic peptide, vs control
[11] = tested on: U2OS cells; test: DNA damage study by comet assay; format: cell-based
[12] = tested on: Lys63-linked Ub chains / RNF168 in 293T cells; test: Flag-RNF168 transfection, immunoprecipitation and western blot after IR; format: cell-based, Human; details: 293T cells transfected with RNF168 (wt), 1 μM, 36 h, IR 10 Gy
[13] = tested on: HeLa cells; test: Cell cycle analysis by flow cytometry; format: cell-based; details: 1 μM
[14] = tested on: HeLa cells; test: Apoptosis study using Annexin V-FITC/PI double staining; format: cell-based; details: 1 μM, 96 h

CC[C@H](C)[C@@H]1NC(=O)[C@H](Cc2c[nH]c3ccccc23)NC(=O)[C@H]([C@@H](C)CC)NC(=O)[C@H](CC(C)C)NC(=O)[C@H](CC(C)C)NC(=O)c2cccc(c2)CSC[C@@H](C(=O)NCC(=O)N[C@@H](C)C(=O)N[C@@H](CSC2CC(=O)N(c3ccc4c(c3)C(=O)OC43c4ccc(O)cc4Oc4cc(O)ccc43)C2=O)C(N)=O)NC(=O)[C@H](CC(C)C)NC(=O)[C@H]([C@@H](C)CC)NC(=O)[C@H](Cc2ccc(O)cc2)NC(=O)[C@@H]2CCCN2C(=O)[C@H](CC(N)=O)NC(=O)[C@H](CCCCN)NC(=O)[C@H](CO)NC(=O)[C@H](CO)NC(=O)CNC1=O (stereo partly drawn) [CP1-FITC] (LLIWIGSSKNPYILCGAC(Fluorescein(5-Mal))-NH2; linker N-15 via X1)
Kd [1]: 0.0958 ± 0.0023 µM

CC[C@H](C)[C@@H]1NC(=O)[C@H](Cc2c[nH]c3ccccc23)NC(=O)[C@H]([C@@H](C)CC)NC(=O)[C@H](CC(C)C)NC(=O)[C@H](CC(C)C)NC(=O)c2cccc(c2)CSC[C@@H](C(=O)NCC(=O)N[C@@H](C)C(=O)N[C@@H](CSC2CC(=O)N(c3ccc4c(c3)C(=O)OC43c4ccc(N(C)C)cc4Oc4cc(N(C)C)ccc43)C2=O)C(N)=O)NC(=O)[C@H](CC(C)C)NC(=O)[C@H]([C@@H](C)CC)NC(=O)[C@H](Cc2ccc(O)cc2)NC(=O)[C@@H]2CCCN2C(=O)[C@H](CC(N)=O)NC(=O)[C@H](CCCCN)NC(=O)[C@H](CO)NC(=O)[C@H](CO)NC(=O)CNC1=O (stereo partly drawn) [CP1-TAMRA] (LLIWIGSSKNPYILCGAC(X2)-NH2; linker N-15 via X1)
Kd [1]: 0.102 ± 0.0036 µM

CC[C@H](C)[C@@H]1NC(=O)[C@H](Cc2c[nH]c3ccccc23)NC(=O)[C@H]([C@@H](C)CC)NC(=O)[C@H](CC(C)C)NC(=O)[C@H](CC(C)C)NC(=O)c2cccc(c2)CSC[C@@H](C(=O)NCC(N)=O)NC(=O)[C@H](CC(C)C)NC(=O)[C@H]([C@@H](C)CC)NC(=O)[C@H](Cc2ccc(O)cc2)NC(=O)[C@@H]2CCCN2C(=O)[C@H](CC(N)=O)NC(=O)[C@H](CCCCN)NC(=O)[C@H](CO)NC(=O)[C@H](CO)NC(=O)CNC1=O [cyclic peptide 1] (LLIWIGSSKNPYILCG-NH2; linker N-15 via X1)
binding on Lys11 linked Di-Ub [2]: undetectable binding; also recorded: no binding | binding on Lys29 linked Di-Ub [3]: undetectable binding

CC[C@H](C)[C@@H]1NC(=O)[C@H](Cc2c[nH]c3ccccc23)NC(=O)[C@H]([C@@H](C)CC)NC(=O)[C@H](CC(C)C)NC(=O)[C@H](CS)NC(=O)c2cccc(c2)CSC[C@@H](C(=O)NCC(N)=O)NC(=O)[C@H](CC(C)C)NC(=O)[C@H]([C@@H](C)CC)NC(=O)[C@H](Cc2ccc(O)cc2)NC(=O)[C@@H]2CCCN2C(=O)[C@H](CC(N)=O)NC(=O)[C@H](CCCCN)NC(=O)[C@H](CO)NC(=O)[C@H](CO)NC(=O)CNC1=O [cyclic peptide 2] (CLIWIGSSKNPYILCG-NH2; linker N-15 via X1)
binding affinity to Lys63-linked Di-Ub, relative (normalized to 1) [4]: more effective binder | selectivity for the Lys63-linked Di-Ub chain over other Ub chains [5]: higher selectivity | binding affinity for linear Di-Ub [6]: significantly lower binding affinity | binding affinity for Lys48-linked Di-Ub [7]: significantly lower binding affinity | binding affinity for Lys48-linked Tetra-Ub [8]: significantly lower binding affinity | increase of γ-H2AX level [9]: 3 fold | increase of γ-H2AX level [10]: 3.5 fold | relative tail moment enhancement ([11]; 8 h treatment, compared to the control): 8 fold | amount of fragmented DNA / DNA damage ([11]; comet assay): significant increase | effect on RNF168 and conjugated Ub signals [12]: abolished these additional signals of RNF168 and conjugated Ub | increase in the population of cells at G2/M phase ([13]; 72 h): ~5.2% | increase in the population of cells at G2/M phase ([13]; 96 h): ~13% | increase of overall Annexin V positive cells [14]: ~14.5%

CC[C@H](C)[C@@H]1NC(=O)[C@H](Cc2c[nH]c3ccccc23)NC(=O)[C@H]([C@@H](C)CC)NC(=O)[C@H](CC(C)C)NC(=O)[C@H](CS)NC(=O)c2cccc(c2)CSC[C@@H](C(=O)NCC(=O)N[C@@H](C)C(=O)N[C@@H](CSC2CC(=O)N(c3ccc4c(c3)C(=O)OC43c4ccc(O)cc4Oc4cc(O)ccc43)C2=O)C(N)=O)NC(=O)[C@H](CC(C)C)NC(=O)[C@H]([C@@H](C)CC)NC(=O)[C@H](Cc2ccc(O)cc2)NC(=O)[C@@H]2CCCN2C(=O)[C@H](CC(N)=O)NC(=O)[C@H](CCCCN)NC(=O)[C@H](CO)NC(=O)[C@H](CO)NC(=O)CNC1=O (stereo partly drawn) [cyclic peptide 29] (CLIWIGSSKNPYILCGAC(Fluorescein(5-Mal))-NH2; linker N-15 via X1)
Kd [1]: 0.0432 ± 0.004 µM
